# Results as given in PubChem BioAssay AID1347423 (Functional Genomics Laboratory (NCATS/FGL), 2020).
# Screen size: about 52,000 sequences; about 210 (0.4%) were called active.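 The calls were made as follows: active = gene whose silencing raises cell survival under the drug, median off-target-corrected z-score across its silencing RNAs 2 or more; inactive = the rest.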 This is one part of the list.
# Test: Resistance to Poly (ADP-Ribose) Polymerase inhibitor: Gene Identification via Genome-wide siRNA Screen
# Conditions: mouse BRCA2 R2336H ES cells, olaparib, CellTiter-Glo viability; active compounds read high
# How it was run: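 Mouse BRCA2 R2336H ES cells were reverse-transfected with siRNA (20 nM final), treated at 48 h with 500 nM olaparib, and read by CellTiter-Glo after 72 h. Scores: MAD-based z per siRNA, median per gene, seed off-target correction.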
row,Sequence,z-score
1,GGAUGAUGCUCGAAAGAAGTT against Stk22a,inactive: 0.381
2,GGAUCUCUUUUUUCACAUGTT against Kcne2,inactive: 0.338
3,GGAGAUUGCACACUUCCAGTT against MGC37347,inactive: -2.37
4,GGAAGAAACCUUUGUCAAGTT against 9130023H24Rik,inactive: 0.605
5,GGGAAGUGGCUUUUGAUGUTT against Itih1,inactive: 0.937
6,CGAAUCGAGUGAAGAAAAATT against 4930544G11Rik,inactive: 0.034
7,GGCAAAGCAUAUUUUUCUATT against Crsp6,inactive: 0.615
8,GGAACAAAGUAGGAGCUUGTT against Zfp318,inactive: 0.218
9,CCGGAAAGUUCGACAUUCCTT against 2310061B02Rik,inactive: -0.824
10,GCACAGCACUGCCUAAUGUTT against V2r16,inactive: -1.42
11,GCUGAACAAUUUUCAACAATT against 2610207F23Rik,inactive: 0.956
12,GGGUUUAAAGGUUAUGGAGTT against Adam17,inactive: 0.166
13,GCCAGUGGGAUGUCAAAAATT against 5730454B08Rik,inactive: -0.307
14,GGUAAAUUACUCUGAUCAATT against Gpr61,inactive: 0.223
15,GGGAAACUCUGUCCAAUUGTT against Lgtn,inactive: -0.687
16,CGGUUCUGGUGCAUUCACATT against Olfr242,inactive: -1.75
17,GCGUAACGCAGCAGCUAAGTT against Tarbp2,inactive: 0.00254
18,GCUGGUAUUCAGCACCUUUTT against Cyp17a1,inactive: 0.366
19,GGUACCAUCCGGAAUACAATT against Zdhhc19,inactive: -2.49
20,GGGUCUCACUCUCUUCCGATT against Slc23a1,inactive: 0.934
21,GGUUUUAAAGGCCAUAUUGTT against Sc4mol,inactive: -0.234
22,GGUCAAUAUUGGCUUAUGUTT against 0610027O18Rik,inactive: -1.06
23,GGGAAGAAAAAAAAAGGGUTT against Fkrp,inactive: 0.615
24,GGAUGAAAAAUCAGUACUUTT against Aadac,inactive: -1.22
25,GGAGGGACACAGAGAUUACTT against Auh,inactive: 0.259
26,GGUUCAUCAACACCAGCAUTT against Fgfrl1,inactive: -0.907

row,Sequence,z-score
1,GGAAAGAAAAAUCAGAGAATT against Adprhl1,inactive: -0.0852
2,GGGCAUGAAAUGUUCCUGUTT against Prkcc,inactive: -0.872
3,GCCUGUGCCAGAUUUUCUCTT against Rgl2,inactive: 1.97
4,GGAAUGGUUUUUGAAGAGGTT against 4930539I12Rik,inactive: 0.227
5,CCUGGAAAAUAAAAGGUGGTT against Olfr1141,inactive: 0.586
6,GGACACUGUACAGAAGCUGTT against Asb18,inactive: 2.15
7,CGAGAAAAAGACCAUAGUUTT against 1110056N09Rik,inactive: -0.147
8,CCAUUCUGUGCCUUAGUUUTT against Loxhd1,inactive: -0.669
9,GGCGAGGGUUAAAAAUUUATT against Sfrs1,inactive: -1.02
10,GGGAAAAUAUCAAGUGUAGTT against BC027828,inactive: -0.161
11,GGAAAUGAACAGUAAACCATT against 2010204I15Rik,inactive: 0.485
12,GGUGUUUCAUUAACAGGAATT against 5430416O09Rik,inactive: 0.106
13,GGCACCUACAUCCUUAUUGTT against Ptprn,inactive: 0.11
14,GGACUUUGAGAAAGCAUUCTT against Pck1,inactive: -0.503
15,GAUGGUACUCUUCAUAGUATT against Olfr1362,inactive: 0.64
16,GGAGGAAAUACAUGAUAAATT against Strap,inactive: 0.249
17,GCAGUAACUCCGGUAGUAGTT against Daxx,inactive: 1.31
18,GCUGCUGAUUCAAUUCUAUTT against Eif2c4,inactive: 0.00509
19,GGACAUUGGUCCAAAGAGUTT against 4921506I22Rik,inactive: -0.752
20,GGGAGAACAGUGUUCAGAGTT against Mist1,inactive: 0.501
21,GCAAUUAUAUUUGUUCGGGTT against AW456874,inactive: 0.874
22,GGAAGUAGAGCUUCAAAUGTT against Cdkl2,inactive: 0.468
23,GGCAAUGACCUUGUAAAGATT against Tomm34,inactive: 0.00616
24,GAUUGGAUUUAAAGCCUGCTT against Olfr667,inactive: -0.649
25,CCGUAUUCCAUACAAGGACTT against Ilk,inactive: 0.86
26,GCACUAUGGUAUUGAAAUUTT against Armc5,inactive: -1.01

# As a working copy, part of the list above.
row,Sequence,z-score
18,GCUGCUGAUUCAAUUCUAUTT against Eif2c4,inactive: 0.00509
19,GGACAUUGGUCCAAAGAGUTT against 4921506I22Rik,inactive: -0.752
